Test results taken from paper doi:10.1101/2021.10.04.463081.
These are yes or no findings as the source states them, for the method shown. In cells and extracts the contact can be indirect. Here binding means that the protein was enriched with, or labelled near, the bait; the list need not be complete.

Sequences of proteins named here, by UniProt entry; tags and fusion partners are left off. A change or cut given only in a name is not applied to a line headed by its entry.
UniProt Q92826: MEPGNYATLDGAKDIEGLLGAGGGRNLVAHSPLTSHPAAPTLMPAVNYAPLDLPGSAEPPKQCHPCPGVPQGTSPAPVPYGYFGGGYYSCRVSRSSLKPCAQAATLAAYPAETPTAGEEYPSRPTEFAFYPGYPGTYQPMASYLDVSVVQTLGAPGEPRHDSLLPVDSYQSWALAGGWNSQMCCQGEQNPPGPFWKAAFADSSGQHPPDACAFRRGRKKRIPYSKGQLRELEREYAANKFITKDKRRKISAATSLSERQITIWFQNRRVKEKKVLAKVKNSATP
UniProt P23769: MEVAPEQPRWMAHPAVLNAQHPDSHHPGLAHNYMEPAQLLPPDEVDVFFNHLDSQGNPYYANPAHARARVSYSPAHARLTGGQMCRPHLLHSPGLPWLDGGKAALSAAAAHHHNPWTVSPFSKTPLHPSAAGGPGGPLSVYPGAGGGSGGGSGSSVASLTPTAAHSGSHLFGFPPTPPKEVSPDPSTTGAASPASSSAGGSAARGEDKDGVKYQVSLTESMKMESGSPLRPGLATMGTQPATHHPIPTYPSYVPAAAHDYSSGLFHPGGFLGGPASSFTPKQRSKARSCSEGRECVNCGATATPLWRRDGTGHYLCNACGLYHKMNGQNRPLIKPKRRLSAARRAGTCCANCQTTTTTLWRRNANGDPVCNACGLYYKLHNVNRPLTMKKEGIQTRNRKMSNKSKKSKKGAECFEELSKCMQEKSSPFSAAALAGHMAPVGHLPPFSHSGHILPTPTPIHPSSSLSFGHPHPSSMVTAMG
UniProt Q13547: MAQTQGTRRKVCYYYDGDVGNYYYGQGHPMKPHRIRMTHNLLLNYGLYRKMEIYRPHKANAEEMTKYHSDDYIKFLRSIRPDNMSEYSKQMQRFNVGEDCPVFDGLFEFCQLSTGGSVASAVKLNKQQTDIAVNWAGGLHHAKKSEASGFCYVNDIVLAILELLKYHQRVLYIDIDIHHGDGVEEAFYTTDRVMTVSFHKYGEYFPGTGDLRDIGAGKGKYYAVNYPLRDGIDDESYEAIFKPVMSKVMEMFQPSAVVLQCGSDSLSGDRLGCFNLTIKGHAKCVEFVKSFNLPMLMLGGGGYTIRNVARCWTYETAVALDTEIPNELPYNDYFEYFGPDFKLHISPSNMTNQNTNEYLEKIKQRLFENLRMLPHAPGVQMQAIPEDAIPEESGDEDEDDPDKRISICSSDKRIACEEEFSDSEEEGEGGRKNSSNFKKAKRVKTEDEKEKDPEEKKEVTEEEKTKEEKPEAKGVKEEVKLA
UniProt O15379: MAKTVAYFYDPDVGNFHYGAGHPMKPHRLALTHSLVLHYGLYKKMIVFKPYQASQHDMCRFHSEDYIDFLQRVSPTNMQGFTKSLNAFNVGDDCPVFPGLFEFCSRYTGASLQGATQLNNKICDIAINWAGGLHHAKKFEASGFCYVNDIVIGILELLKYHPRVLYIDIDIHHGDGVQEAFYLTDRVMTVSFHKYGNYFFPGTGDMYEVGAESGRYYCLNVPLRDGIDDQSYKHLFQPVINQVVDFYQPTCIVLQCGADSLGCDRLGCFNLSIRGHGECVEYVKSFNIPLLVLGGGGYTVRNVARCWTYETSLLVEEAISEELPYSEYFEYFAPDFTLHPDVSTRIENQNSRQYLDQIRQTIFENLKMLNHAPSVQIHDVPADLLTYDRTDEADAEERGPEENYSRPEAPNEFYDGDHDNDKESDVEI
UniProt P10275: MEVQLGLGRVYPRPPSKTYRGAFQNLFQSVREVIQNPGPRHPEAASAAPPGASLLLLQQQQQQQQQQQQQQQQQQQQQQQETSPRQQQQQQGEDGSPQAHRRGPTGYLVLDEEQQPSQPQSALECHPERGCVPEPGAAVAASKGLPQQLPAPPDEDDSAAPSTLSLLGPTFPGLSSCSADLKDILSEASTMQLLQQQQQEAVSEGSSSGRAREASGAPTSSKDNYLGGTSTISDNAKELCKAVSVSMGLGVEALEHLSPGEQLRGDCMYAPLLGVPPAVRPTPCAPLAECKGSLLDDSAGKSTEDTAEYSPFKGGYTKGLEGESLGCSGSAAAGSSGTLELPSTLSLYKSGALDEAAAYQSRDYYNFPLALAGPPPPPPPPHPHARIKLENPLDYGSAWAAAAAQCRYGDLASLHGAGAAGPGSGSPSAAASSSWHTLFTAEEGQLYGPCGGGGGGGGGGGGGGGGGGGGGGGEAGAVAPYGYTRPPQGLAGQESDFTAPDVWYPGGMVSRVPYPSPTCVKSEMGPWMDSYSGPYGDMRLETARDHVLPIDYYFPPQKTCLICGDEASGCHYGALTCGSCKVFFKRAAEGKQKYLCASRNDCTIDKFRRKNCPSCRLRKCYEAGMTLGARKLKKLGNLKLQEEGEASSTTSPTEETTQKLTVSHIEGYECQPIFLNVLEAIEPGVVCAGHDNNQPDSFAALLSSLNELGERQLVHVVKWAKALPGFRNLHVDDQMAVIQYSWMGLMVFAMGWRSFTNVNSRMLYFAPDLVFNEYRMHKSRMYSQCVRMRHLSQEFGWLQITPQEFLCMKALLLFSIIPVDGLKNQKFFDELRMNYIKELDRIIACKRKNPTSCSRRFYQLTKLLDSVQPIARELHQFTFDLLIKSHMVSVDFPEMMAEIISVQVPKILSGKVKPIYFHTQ

Assays:
HOXB13 G84E-SFB = HOXB13 G84E-SFB (UniProt Q92826); test: affinity purification with mass spectrometry
HOXB13 WT-SFB = HOXB13 WT-SFB (UniProt Q92826); test: affinity purification with mass spectrometry

Row | binding (HOXB13 G84E-SFB) | binding (HOXB13 WT-SFB) | Molecule
1 | binds | binds | GATA2 (from UniProt P23769 1-480)
2 | – | binds | HDAC1 (from UniProt Q13547 1-482) (enzyme)
3 | – | binds | HDAC3 (from UniProt O15379 1-428) (enzyme)
4 | binds | binds | androgen receptor (AR) (from UniProt P10275 1-920)
5 | – | binds | TBL1X (protein, UniProt O60907 1-577) MTELAGASSSCCHRPAGRGAMQSVLHHFQRLRGREGGSHFINTSSPRGEAKMSITSDEVNFLVYRYLQESGFSHSAFTFGIESHISQSNINGTLVPPAALISILQKGLQYVEAEISINEDGTVFDGRPIESLSLIDAVMPDVVQTRQQAFREKLAQQQASAAAAAAAATAAATAATTTSAGVSHQNPSKNREATVNGEENRAHSVNNHAKPMEIDGEVEIPSSKATVLRGHESEVFICAWNPVSDLLASGSGDSTARIWNLNENSNGGSTQLVLRHCIREGGHDVPSNKDVTSLDWNTNGTLLATGSYDGFARIWTEDGNLASTLGQHKGPIFALKWNRKGNYILSAGVDKTTIIWDAHTGEAKQQFPFHSAPALDVDWQNNTTFASCSTDMCIHVCRLGCDRPVKTFQGHTNEVNAIKWDPSGMLLASCSDDMTLKIWSMKQEVCIHDLQAHNKEIYTIKWSPTGPATSNPNSNIMLASASFDSTVRLWDIERGVCTHTLTKHQEPVYSVAFSPDGKYLASGSFDKCVHIWNTQSGNLVHSYRGTGGIFEVCWNARGDKVGASASDGSVCVLDLRK
6 | binds | binds | FOXA1 (protein, UniProt P55317 1-472) MLGTVKMEGHETSDWNSYYADTQEAYSSVPVSNMNSGLGSMNSMNTYMTMNTMTTSGNMTPASFNMSYANPGLGAGLSPGAVAGMPGGSAGAMNSMTAAGVTAMGTALSPSGMGAMGAQQAASMNGLGPYAAAMNPCMSPMAYAPSNLGRSRAGGGGDAKTFKRSYPHAKPPYSYISLITMAIQQAPSKMLTLSEIYQWIMDLFPYYRQNQQRWQNSIRHSLSFNDCFVKVARSPDKPGKGSYWTLHPDSGNMFENGCYLRRQKRFKCEKQPGAGGGGGSGSGGSGAKGGPESRKDPSGASNPSADSPLHRGVHGKTGQLEGAPAPGPAASPQTLDHSGATATGGASELKTPASSTAPPISSGPGALASVPASHPAHGLAPHESQLHLKGDPHYSFNHPFSINNLMSSSEQQHKLDFKAYEQALQYSPYGSTLPASLPLGSASVTTRSPIEPSALEPAYYQGVYSRPVLNTS
